These are yes or no findings as the source states them, for the method shown. In cells and extracts the contact can be indirect. These calls come from enrichment with a bait or labelling near it, and not all partners need be listed.

Amino acid sequences for entries named in this document (tags omitted). A change or cut given only in a name is not applied to a line headed by its entry. Chains listed by the source or under a name are the forms on record and can include a tag or linker.
BioID2-NRAS^G12V (P01111, form named): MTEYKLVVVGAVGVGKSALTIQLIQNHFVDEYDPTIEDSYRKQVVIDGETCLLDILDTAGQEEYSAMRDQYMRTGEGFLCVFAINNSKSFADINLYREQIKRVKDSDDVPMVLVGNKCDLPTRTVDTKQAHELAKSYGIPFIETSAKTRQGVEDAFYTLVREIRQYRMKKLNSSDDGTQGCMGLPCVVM
UniProt P84077: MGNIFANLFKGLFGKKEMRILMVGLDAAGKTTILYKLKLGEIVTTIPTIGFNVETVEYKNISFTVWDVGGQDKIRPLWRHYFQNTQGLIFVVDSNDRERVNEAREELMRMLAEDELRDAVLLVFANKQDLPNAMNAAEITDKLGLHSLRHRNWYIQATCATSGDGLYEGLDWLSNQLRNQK

The values below come from publication PMC9482638.

One assay has as its target BioID2-NRAS^G12V (UniProt P01111). The assay can be described thus: proximity labelling; BioID2-KRAS^G12V in RPMI 8226 and XG2, BioID2-NRAS^G12V in SKMM1 and L363; 50 uM biotin 16 h; modified RIPA lysis; streptavidin agarose pulldown; SILAC-MS; enrichment relative to BioID2 alone (empty vector).
A further assay has as its target BioID2-KRAS^G12V (UniProt P01116). Described as above.

On to “SLC3A2 (endogenous) (from UniProt P08195 1-529)”, for which the binding entry with BioID2-NRAS^G12V is given as “binds”. For “LAMTOR3 (endogenous) (from UniProt Q9UHA4 1-124)”, the binding result with BioID2-KRAS^G12V and in the assay with BioID2-NRAS^G12V was “binds” throughout. “RRAGC (endogenous) (from UniProt Q9HB90 1-399)”: the binding result with BioID2-KRAS^G12V and with BioID2-NRAS^G12V was “binds” each time. Turning to “ARF1 (endogenous) (from UniProt P84077 1-181)”, the binding entry in the assay with BioID2-KRAS^G12V and with BioID2-NRAS^G12V was “binds” in each case.
